Construct, isoform or probe ends are uncertain for at least one entry. For some of these results: A weaker result is weaker than the reference pair of the same experiment. At least one verdict was read from the data and is not stated in words by the source. For some of these results: Where a protein sequence is shown, tags need not be part of it.
Assays:
Experiment in all cases: EMSA
[1] = target: VosA1-190 (VosA_cryst) (Aspergillus nidulans) (UniProt Q5BBX1); conditions: EMSA: 10 mM HEPES/NaOH pH 7.4, 150 mM NaCl, ~53 pmol DNA in 10 ul, RT 15 min; DNA:protein molar ratios 1:0.3 to 1:9; 6% PAGE, 0.5% TBE, ethidium bromide; recombinant protein; residues 1-190; protein details: Strep-tag (C-terminal)
[2] = target: T1, VeA1-224 (Aspergillus nidulans) (UniProt C8VTV4); conditions: EMSA: 10 mM HEPES/NaOH pH 7.4, 150 mM NaCl, ~53 pmol DNA in 10 ul, RT 15 min; DNA:protein molar ratios 1:0.3 to 1:9; 6% PAGE, 0.5% TBE, ethidium bromide; recombinant protein; residues 1-224; protein details: Strep-tag (C-terminal)
T1 sequence (looked up): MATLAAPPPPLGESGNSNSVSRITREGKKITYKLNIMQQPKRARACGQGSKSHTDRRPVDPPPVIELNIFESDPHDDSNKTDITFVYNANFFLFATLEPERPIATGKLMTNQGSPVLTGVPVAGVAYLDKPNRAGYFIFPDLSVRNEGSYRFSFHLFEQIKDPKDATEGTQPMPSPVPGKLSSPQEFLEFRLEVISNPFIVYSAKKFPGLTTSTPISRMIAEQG

[3] = target: T2, GST-VeA (Aspergillus nidulans) (UniProt C8VTV4); conditions: EMSA: 10 mM HEPES/NaOH pH 7.4, 150 mM NaCl, ~53 pmol DNA in 10 ul, RT 15 min; DNA:protein molar ratios 1:0.3 to 1:9; 6% PAGE, 0.5% TBE, ethidium bromide; recombinant protein; residues 1-573; protein details: GST (N-terminal, pGEX-5X-1)
T2 sequence (looked up): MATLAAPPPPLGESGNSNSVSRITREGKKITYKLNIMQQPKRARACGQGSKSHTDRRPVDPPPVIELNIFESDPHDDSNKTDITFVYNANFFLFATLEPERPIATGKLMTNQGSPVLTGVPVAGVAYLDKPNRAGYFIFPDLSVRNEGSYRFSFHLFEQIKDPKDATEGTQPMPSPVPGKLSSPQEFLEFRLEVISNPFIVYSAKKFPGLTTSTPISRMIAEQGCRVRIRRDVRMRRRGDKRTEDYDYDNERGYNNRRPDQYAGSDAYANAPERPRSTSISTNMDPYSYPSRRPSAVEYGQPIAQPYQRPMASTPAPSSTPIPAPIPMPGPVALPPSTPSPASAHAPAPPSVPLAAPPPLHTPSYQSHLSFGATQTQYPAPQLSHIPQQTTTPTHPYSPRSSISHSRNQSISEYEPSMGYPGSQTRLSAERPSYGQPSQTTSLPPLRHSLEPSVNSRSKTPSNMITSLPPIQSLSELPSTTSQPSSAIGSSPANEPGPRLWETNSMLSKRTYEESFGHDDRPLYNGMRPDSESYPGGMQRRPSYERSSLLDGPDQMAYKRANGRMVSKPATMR

ATTCGGCGACTAGGATCTTACCCGAG (double strand) [brlA-delta2-delta1 (JG640/641)]
binding result [1]: binds more weakly
binding result [2]: binds more weakly

ATTCGGCGACTAGGATCTTACTGGCCGAG (double strand) [brlA-delta1 (JG638/639)]
binding result [1]: binds more weakly
binding result [2]: binds more weakly

ATTCGGCGACTAGGATCTTACCCGCGGCCGAG (double strand) [brlA-delta2 (JG636/637)]
binding result [1]: binds more weakly
binding result [2]: binds more weakly

ATTCGGCGACTAGGATCTTACTGGCCGCGGCCGAG (double strand) [brlA 35 bp probe (OHS301/302)]
binding result [3]: binds
